# Assay results taken from US20200299373A1.
# Results are given in words; binding and its absence hold for the method and conditions named. Some binding calls cover weakened binding; strength is not graded here.
# T1: F2-11-BSA (human)
# T1 sequence (peptide, conjugated to BSA): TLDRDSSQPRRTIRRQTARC
# B1: anti-FAM19A5 antibody 1-28 (antibody, V domains shown)
# VH: AVTLDESGGGLQTPGGALSLVCKASGFDFSDYGMGWVRQAPGKGLEWVAAIRSDGSNPSYGSAVKGRATISKDNGRSTVRLQLNNLRAEDTATYYCAKDGNGYCALDAYRSGGYSCGVYPGSIDAWGHGTEVIVSS
# VL: ALTQPSSVSANLEGTVEITCSGSGYGYGWYQQKSPGSAPVTVIYQNDKRPSDIPSRFSGSKSGSTGTLTITGVQVEDEAVYYCGSEDSSTLAGIFGAGTTLTVL
# Molecular target: T1, F2-11-BSA (human)
# Assay: ELISA on coated BSA-conjugated mutant F2 peptide (FIG. 3C)
binder,measurement,value
B1,binding,binds
